# Measurements from the supplement of paper PMC12889115.
# This is one part of the list. These are raw signals, not scaled to a control.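 First-pass screen: polymyxin B was added at a level that permeabilizes the Salmonella outer membrane while sparing the inner membrane. DMSO wells, with and without polymyxin B, defined maximum growth. Because plates differed from one another, each plate's data were ranked separately and the compounds with the lowest OD600 were carried forward as hits.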
# System: Salmonella enterica serovar Typhimurium SL1344
# Assay: bacterial growth OD600 after 18 h with compound and polymyxin B; higher = more bacterial growth (less inhibition)
# Conditions: 50 µM, Mueller-Hinton broth
compound,measurement,setting,value
CCS(=O)(=O)Nc1cc(C(=O)N(C)Cc2nonc2C)c2c(c1)nc(-c1ccccc1)n2C,bacterial growth OD600,polymyxin B 0.75 µg/mL,0.842
CCOC(=O)N1CCN(C(=O)c2ccc(N3CCC(NCC4COCCO4)CC3)cc2)CC1 (centres undefined),bacterial growth OD600,polymyxin B 0.75 µg/mL,0.719
COCC(=O)Nc1cc(C(=O)N2CCCC(COC)C2)c2c(c1)ncn2Cc1ccc(F)cc1 (centres undefined),bacterial growth OD600,polymyxin B 0.75 µg/mL,0.804
Cc1nc(N2CCC(C(=O)NC(Cn3ccnc3)c3ccccc3)CC2)nc2ccc(C(C)C)cc12 (centres undefined),bacterial growth OD600,polymyxin B 0.75 µg/mL,0.018
CC(C)n1cc(CN2CCCC2C(=O)Nc2ccccc2Oc2cccnc2)cn1 (centres undefined),bacterial growth OD600,polymyxin B 0.75 µg/mL,0.856
CN(C)Cc1ccc(C(=O)N2CCCC(CCc3cccc(F)c3)C2)o1 (centres undefined),bacterial growth OD600,polymyxin B 0.75 µg/mL,-0.003
Cn1cc(CNC(=O)C2CCCN(C3CCN(Cc4ccccc4)CC3)C2)cn1 (centres undefined),bacterial growth OD600,polymyxin B 0.75 µg/mL,0.688
Cc1cc(OCc2cc(C(=O)N(C)Cc3cnn(C)c3)no2)cc(C)c1Cl,bacterial growth OD600,polymyxin B 1 µg/mL,0.024
Cc1cccc(C(=O)NCc2nc(-c3ccc(NC(=O)Cc4ccccc4)cc3)oc2C)c1,bacterial growth OD600,polymyxin B 0.75 µg/mL,0.86
COc1ccccc1CCN1CCC(CN(C)C(=O)CCc2cccnc2)CC1,bacterial growth OD600,polymyxin B 1 µg/mL,1
Cc1ccccc1CC(=O)NC1CC(=O)N(Cc2ccccc2Cl)C1 (centres undefined),bacterial growth OD600,polymyxin B 1 µg/mL,0.962
CC(=O)NCCNC(=O)C1CCCN(c2nc(-c3ccccc3)nc3c2CCC3)C1 (centres undefined),bacterial growth OD600,polymyxin B 1 µg/mL,0.916
O=C(NCC1CCOCC1)C1CCN(c2nc(-c3ccccc3)nc3c2CCC3)CC1,bacterial growth OD600,polymyxin B 0.75 µg/mL,0.824
Cc1nc(C)c(C(=O)N2CCCC(Nc3ccc4c(c3)OCCO4)C2)s1 (centres undefined),bacterial growth OD600,polymyxin B 1 µg/mL,0.971
COCCN1C(=O)NC(Cc2ccc(F)cc2)(C2CCN(C(=O)c3ccc(C)cc3C)CC2)C1=O (centres undefined),bacterial growth OD600,polymyxin B 0.75 µg/mL,0.854
CSCCNC(=O)c1coc(COc2ccccc2F)n1,bacterial growth OD600,polymyxin B 1 µg/mL,0.982
Cc1ncc2c(c1CNS(=O)(=O)c1cccs1)CCN(C(=O)c1ccc(-n3cccn3)cc1)C2,bacterial growth OD600,polymyxin B 0.75 µg/mL,0.878
COc1ccccc1-c1ccnc(-n2ncc(C(=O)N3CCN(Cc4ccccc4)CC3)c2C)n1,bacterial growth OD600,polymyxin B 0.75 µg/mL,0.838
COc1cccc(C(=O)N2CCCC(CCC(=O)N3CCN(c4ccccn4)CC3)C2)c1 (centres undefined),bacterial growth OD600,polymyxin B 0.75 µg/mL,0.795

# For convenience, 2 of the compounds above:
compound,measurement,setting,value
CC(=O)NCCNC(=O)C1CCCN(c2nc(-c3ccccc3)nc3c2CCC3)C1 (centres undefined),bacterial growth OD600,polymyxin B 1 µg/mL,0.916
O=C(NCC1CCOCC1)C1CCN(c2nc(-c3ccccc3)nc3c2CCC3)CC1,bacterial growth OD600,polymyxin B 0.75 µg/mL,0.824
